Assay results from article PMC4561382, “Aven recognition of RNA G-quadruplexes regulates translation of the mixed lineage leukemia protooncogenes”.

By UniProt entry, the sequences of proteins in these tests, tags left out.
UniProt Q99873: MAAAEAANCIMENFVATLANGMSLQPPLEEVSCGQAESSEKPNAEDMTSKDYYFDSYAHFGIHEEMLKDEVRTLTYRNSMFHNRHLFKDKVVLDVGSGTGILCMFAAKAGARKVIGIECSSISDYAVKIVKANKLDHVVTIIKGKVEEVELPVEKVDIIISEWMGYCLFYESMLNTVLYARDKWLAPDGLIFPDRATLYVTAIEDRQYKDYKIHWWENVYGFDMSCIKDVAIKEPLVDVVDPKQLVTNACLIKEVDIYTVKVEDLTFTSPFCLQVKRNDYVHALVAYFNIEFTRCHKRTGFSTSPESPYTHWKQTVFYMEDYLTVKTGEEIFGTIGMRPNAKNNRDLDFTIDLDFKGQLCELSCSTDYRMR

Experiments:
[1] = molecular target: T1, FLAG-Aven (full-length human Aven) (human) (UniProt Q9NQS1); assay: affinity purification with mass spectrometry; SILAC: U2OS cells transfected with pcDNA3.1 (light), FLAG-Aven (medium) or FLAG-AvenΔRGG (heavy); anti-FLAG agarose immunoprecipitates mixed before LC-MS/MS
T1 sequence (chain, methylarginines in the N-terminus (recognised by ASYM25b)): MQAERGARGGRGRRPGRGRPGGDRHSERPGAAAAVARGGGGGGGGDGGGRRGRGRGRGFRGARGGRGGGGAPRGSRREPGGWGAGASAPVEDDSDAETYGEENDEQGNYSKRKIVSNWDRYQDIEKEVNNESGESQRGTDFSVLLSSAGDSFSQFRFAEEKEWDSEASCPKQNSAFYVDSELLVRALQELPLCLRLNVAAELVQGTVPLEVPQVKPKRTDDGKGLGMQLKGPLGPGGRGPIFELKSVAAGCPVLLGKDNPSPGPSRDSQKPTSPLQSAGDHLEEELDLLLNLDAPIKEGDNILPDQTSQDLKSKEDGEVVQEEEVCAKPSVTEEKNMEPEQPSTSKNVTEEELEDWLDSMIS

[2] = molecular target: T2, FLAG-AvenΔRGG (human Aven lacking amino acids 1-73) (human) (UniProt Q9NQS1); assay: as above
T2 sequence: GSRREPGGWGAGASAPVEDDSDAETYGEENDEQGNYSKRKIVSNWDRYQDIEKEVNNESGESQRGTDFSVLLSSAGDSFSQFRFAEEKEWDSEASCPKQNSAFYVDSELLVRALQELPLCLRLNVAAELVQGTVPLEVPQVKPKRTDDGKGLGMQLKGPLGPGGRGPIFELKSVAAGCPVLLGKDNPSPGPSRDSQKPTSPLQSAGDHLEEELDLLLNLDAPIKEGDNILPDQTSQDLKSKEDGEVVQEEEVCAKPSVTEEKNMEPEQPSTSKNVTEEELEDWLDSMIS

## PRMT1 (protein arginine methyltransferase 1), endogenous (from UniProt Q99873 1-371) (enzyme)
[1]
  binding: binds
[2]
  binding: no binding

Results are given in words; binding and its absence hold for the method and conditions named. In cells and extracts the contact can be indirect. A yes stands for co-enrichment or nearness to the bait. Other partners may have been found. For some assays here: No binding means not detected with the bait. Tags and fused reporters may be left off the sequences shown.
